# Among all 24,000 compounds or so, fewer than 10 were called active. This list was built around the results that the source calls inconclusive (neither active nor inactive); the mix of calls is not that of the screen.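 Rule for the calls: active = fluorescent ligand binding to cells raised by more than 40% of the manganese-induced maximum; inconclusive = compound's own fluorescence above 85% of the ligand control signal; inactive = the rest.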
# By UniProt entry, the sequences of proteins in these tests, tags left out.
# UniProt P13612, whole entry, looked up: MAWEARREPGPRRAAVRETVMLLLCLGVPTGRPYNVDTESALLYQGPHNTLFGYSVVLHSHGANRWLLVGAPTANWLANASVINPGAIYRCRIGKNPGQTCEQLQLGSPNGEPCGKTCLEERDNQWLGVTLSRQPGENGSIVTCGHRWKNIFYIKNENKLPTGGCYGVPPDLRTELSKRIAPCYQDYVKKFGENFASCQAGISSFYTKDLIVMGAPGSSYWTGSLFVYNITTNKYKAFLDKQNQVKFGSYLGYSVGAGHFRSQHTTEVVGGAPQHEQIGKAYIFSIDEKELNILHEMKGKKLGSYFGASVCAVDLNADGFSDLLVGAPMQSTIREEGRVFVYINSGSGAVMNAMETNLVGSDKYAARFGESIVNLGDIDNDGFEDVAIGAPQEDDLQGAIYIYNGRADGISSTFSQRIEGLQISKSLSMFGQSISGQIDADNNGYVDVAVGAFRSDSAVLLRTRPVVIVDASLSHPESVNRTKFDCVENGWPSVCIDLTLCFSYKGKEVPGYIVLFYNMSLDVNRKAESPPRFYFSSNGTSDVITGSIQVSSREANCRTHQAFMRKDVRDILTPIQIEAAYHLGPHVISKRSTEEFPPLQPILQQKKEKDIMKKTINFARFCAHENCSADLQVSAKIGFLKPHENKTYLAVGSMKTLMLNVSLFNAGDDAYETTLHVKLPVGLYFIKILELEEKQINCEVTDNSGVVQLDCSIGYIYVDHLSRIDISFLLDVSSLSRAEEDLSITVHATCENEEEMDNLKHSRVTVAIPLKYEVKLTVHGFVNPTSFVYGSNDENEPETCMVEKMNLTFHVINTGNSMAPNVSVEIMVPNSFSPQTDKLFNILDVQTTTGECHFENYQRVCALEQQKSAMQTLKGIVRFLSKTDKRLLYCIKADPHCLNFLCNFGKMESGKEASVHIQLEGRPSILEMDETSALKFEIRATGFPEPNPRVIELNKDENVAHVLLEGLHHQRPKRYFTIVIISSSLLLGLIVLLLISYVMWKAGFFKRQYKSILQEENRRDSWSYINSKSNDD
# Molecular target: Integrin alpha-4 (Homo sapiens) (UniProt P13612)
# Test: enhancers of LDV-FITC binding to VLA-4 integrin, primary screen, Jurkat cells, flow cytometry (AID 528);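 for activation: 0% = ligand binding without compound and 100% = manganese-stimulated maximal binding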
# Details: hits give high values, screened at 10 µM (by protocol)
row,Compound,activation
1,CCOc1c(C)cc2[nH]c(CCC(=O)O)nc2c1C,inactive: 4.5%
2,COc1ccc(NC(=O)c2nnn(Cc3ccc(SC)cc3)c2N)c(OC)c1,inactive: -1%
3,C=CCN1C(=O)CSc2ccc(C(=O)OCC)cc21,inconclusive
4,CCCCN(C)C(=O)c1oc2ccc(S(=O)(=O)N3CCCCCC3)cc2c1C,inconclusive
5,O=C(CCCCCN1C(=O)c2ccccc2C1=O)Nc1ccc(S(=O)(=O)N2CCCCC2)cc1,inconclusive
6,CC(CC(=O)NC1CCSC1=O)c1ccccc1 (configuration not stated),inconclusive
7,COc1cc(NC(=O)C2CCCN(S(=O)(=O)c3cnc[nH]3)C2)cc(OC)c1 (configuration not stated),inconclusive
8,COc1ccc(S(=O)(=O)N2CCCN(CC(=O)Nc3cc(NC(C)=O)ccc3OC)CC2)cc1,inconclusive
9,Cc1cccc(CCNC(=O)C2CCCN(S(=O)(=O)c3cccc4nsnc34)C2)c1 (configuration not stated),inconclusive
10,COc1ccc(C2OC(=O)CC2C(=O)NC2CCCCCC2)cc1OC (configuration not stated),inactive: 6%
11,Cc1c(=O)n(OCc2ccccn2)c2ccccc2[n+]1[O-],inconclusive
12,Cn1c(=O)[nH]c(=O)c2c1nc(N1CCCCCC1)n2CCCSc1nc2ccccc2o1,inactive: 3%
13,CC1(C)CC(=O)N(CC(=O)NC2CCCC2)c2ccccc2S1(=O)=O,inconclusive
14,COc1ccc(-c2nc(-c3ccc(NC(=O)c4ccncc4)cc3)no2)cc1OC,inconclusive
15,CCOC(=O)c1cccc(NC(=O)CCS(=O)(=O)c2cccs2)c1,inconclusive
16,CN(CC(=O)NCc1ccc2c(c1)OCO2)S(=O)(=O)c1ccc(Br)s1,inactive: -6%
17,COCCCNC(=O)CCc1nc2cccnc2n1Cc1ccc(OC)cc1,inactive: 4%
18,COC(=O)c1c[nH]n2c(=O)c(Cc3ccc(F)cc3Cl)c(C)nc12,inconclusive
19,Cc1nc2ncnn2c(C)c1CCC(=O)N1CCOCC1,inactive: 2%
20,COC(=O)c1ccc2c(c1)NC(=O)C(N1CCOCC1)S2 (configuration not stated),inconclusive
21,O=C(OCC#CCSc1nnc(-c2ccc(Br)cc2)o1)c1ccco1,inconclusive
22,CCOC(=O)C1CCCN(c2c(Nc3cccc(C)c3)c(=O)c2=O)C1 (configuration not stated),inactive: -1%
23,COc1cccc(NS(=O)(=O)c2ccc3[nH]cc(C(=O)NCCC(C)C)c(=O)c3c2)c1,inconclusive
24,CCOc1ccc(NC(=O)CSc2nc3ccccc3c(=O)n2CCNC(C)=O)cc1,inconclusive
25,O=C(C1=C(O)C(=O)N(Cc2ccccc2)C1c1ccncc1)c1ccco1 (configuration not stated),inactive: 5.5%
26,CCOc1ccccc1NC(=O)CCN1CCN(S(=O)(=O)c2ccc(Br)cc2)CC1,inactive: -0.7%
27,c1ccc(N2CCN(c3nc4cc5c(cc4s3)OCO5)CC2)cc1,inconclusive

# From entry 4 up to 5, as listed above:
row,Compound,activation
4,CCCCN(C)C(=O)c1oc2ccc(S(=O)(=O)N3CCCCCC3)cc2c1C,inconclusive
5,O=C(CCCCCN1C(=O)c2ccccc2C1=O)Nc1ccc(S(=O)(=O)N2CCCCC2)cc1,inconclusive
